Data on one substance can be found in article PMC7979925.

Chains of the proteins cited; added tags and fusions are not shown.
UniProt A0A3L7IGC1: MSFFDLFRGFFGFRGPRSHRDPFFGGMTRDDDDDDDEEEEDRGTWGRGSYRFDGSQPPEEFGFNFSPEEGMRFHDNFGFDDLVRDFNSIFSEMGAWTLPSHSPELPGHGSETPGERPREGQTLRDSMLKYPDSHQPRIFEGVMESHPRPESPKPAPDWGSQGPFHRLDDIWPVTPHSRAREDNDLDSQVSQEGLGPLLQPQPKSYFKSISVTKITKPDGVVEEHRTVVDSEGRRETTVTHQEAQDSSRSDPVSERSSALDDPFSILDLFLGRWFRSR

The target of assay [1] is T1, G592R Kv3.3 mutant channel (UniProt Q14003).
T1 sequence: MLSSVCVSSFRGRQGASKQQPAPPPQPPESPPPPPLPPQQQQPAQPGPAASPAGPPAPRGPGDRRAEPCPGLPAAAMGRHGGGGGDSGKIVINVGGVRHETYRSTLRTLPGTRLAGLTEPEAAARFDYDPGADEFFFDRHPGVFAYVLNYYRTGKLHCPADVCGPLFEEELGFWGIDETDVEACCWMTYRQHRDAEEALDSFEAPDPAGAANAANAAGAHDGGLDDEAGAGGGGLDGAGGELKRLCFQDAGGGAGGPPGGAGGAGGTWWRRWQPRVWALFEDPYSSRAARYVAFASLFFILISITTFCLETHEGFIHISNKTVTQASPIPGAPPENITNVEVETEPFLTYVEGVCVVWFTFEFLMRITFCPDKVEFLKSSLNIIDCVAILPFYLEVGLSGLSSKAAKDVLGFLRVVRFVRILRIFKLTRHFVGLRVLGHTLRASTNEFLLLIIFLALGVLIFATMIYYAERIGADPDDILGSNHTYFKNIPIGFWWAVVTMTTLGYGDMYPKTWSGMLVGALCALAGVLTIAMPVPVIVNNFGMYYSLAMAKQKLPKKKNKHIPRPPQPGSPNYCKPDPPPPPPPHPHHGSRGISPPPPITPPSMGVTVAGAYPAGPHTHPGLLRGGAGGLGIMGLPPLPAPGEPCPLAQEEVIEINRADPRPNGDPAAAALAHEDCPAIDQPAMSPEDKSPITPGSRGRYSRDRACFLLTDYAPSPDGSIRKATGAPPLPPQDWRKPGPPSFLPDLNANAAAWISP
The experiment in a line: condition: only cells preincubated for 30 min with 10 μM MRT67307 (TBK1 inhibitor); co-IP; as a1, but cells preincubated for 30 min with 10 μM MRT67307 (TBK1 inhibitor) before lysis.

For assay [2], the target named is T2, wild type Kv3.3 potassium channel (UniProt Q14003).
T2 sequence: T1 sequence with R592G
The description is as above.

Assay [3] concerns the target T1, G592R Kv3.3 mutant channel. The experiment in a line: co-IP; lysates of CHO cells expressing Kv3.3 constructs (25 mM Tris-HCl pH 7.4, 150 mM NaCl, 1% NP-40, 1 mM EDTA, 5% glycerol); primary antibody overnight at 4 °C, protein A/G beads 2 h at 4 °C, six washes; Western blot. In general terms: In western blotting, separated proteins are transferred to a membrane and probed.

For assay [4], the target named is T2, wild type Kv3.3 potassium channel. The description is as above.

Residue numbers refer to the chain shown, from its start. No constants are given. Whether binding was seen depends on the method and setting. Binding seen in cells or lysates may run through a third protein. Some entries that bind do so weakly or less than the wild type.

As to Hax-1 (from UniProt A0A3L7IGC1 1-277), the binding entry in assay [1] was “no binding”; in assay [2] it was “no binding”; in assay [3], “binds”; in assay [4], “binds”.
